This is an account of results in PubChem BioAssay AID328 (DTP/NCI, 2004).

SMILES strings stand for the structures. The list shows only some results of the screen, not a fair sample: it is rich in T/C values a quarter to a half above the control, in often repeated tests (any T/C) and in doses without a T/C. Other doses and runs of a compound stand elsewhere. T/C is the treated group as % of the vehicle group. Some doses have a count of surviving animals in place of a T/C: the source holds a T/C of zero for them, seemingly a mark for toxic or unscored doses. Some survivor counts are full or nearly so, which does not show that the dose was tolerated: the source hardly ever lists a survival T/C far under the control, and the zero likely stands for such cases as well. Counts of survivors are from the toxicity check (mostly the fifth day) where no day follows; animals may have died later. Schedule codes are those of the source, taken here to give the interval after Q, in days (D) or hours (H), and the number of doses after X. Some entries hold several experiments; their values stand side by side, smallest first. For survival time, the PubChem record calls one and a half times the control and up active, and a quarter to a half above the control has no call in these data; cut-offs in other NCI protocols can differ.

This assay has as its system BDF1 mice, P388 leukemia ip, median survival T/C. Put plainly: NCI In Vivo Anticancer Drug Screen. Data for tumor model P388 Leukemia (intraperitoneal) in B6D2F1 (BDF1) mice. The conditions noted are these: T/C endpoint: median survival time, higher T/C = longer survival. In short, it runs like this:
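Vehicle-dosed animals serve as the reference; survival of compound-dosed, tumour-implanted mice is divided by it.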

Setting [1] is: dose: 100.0 mg/kg/injection, schedule: Q01DX001 (ip), vehicle: Klucel (hydroxypropylcellulose) (HPC).
[2] abbreviates: dose: 200.0 mg/kg/injection, schedule: Q01DX001 (ip), vehicle: Klucel (hydroxypropylcellulose) (HPC).
[3] abbreviates: dose: 200.0 mg/kg/injection, schedule: Q04DX003 (ip), vehicle: Klucel (hydroxypropylcellulose) (HPC).
[4] abbreviates: dose: 400.0 mg/kg/injection, schedule: Q04DX003 (ip), vehicle: saline with Tween-80.
The mark [5] stands for this setting: dose: 100.0 mg/kg/injection, schedule: Q01DX009 (ip), vehicle: saline with Tween-80.
Where [6] appears, read: dose: 200.0 mg/kg/injection, schedule: Q01DX009 (ip), vehicle: saline with Tween-80.
Where [7] appears, read: dose: 25.0 mg/kg/injection, schedule: Q01DX009 (ip), vehicle: saline.
Where [8] appears, read: dose: 200.0 mg/kg/injection, schedule: Q04DX003 (ip), vehicle: saline with Tween-80.
Where [9] appears, read: dose: 50.0 mg/kg/injection, schedule: Q01DX009 (ip), vehicle: saline with Tween-80.

With `COc1cc2c(cc1OC)C(NC(C)=O)N(C)c1c-2ccc2cc3c(cc12)OCO3` (configuration not stated), the T/C reads like this: (dose: 20.0 mg/kg/injection, schedule: Q01DX009 (ip), vehicle: saline) 131 and 145 % of control; (dose: 40.0 mg/kg/injection, schedule: Q01DX009 (ip), vehicle: saline) 140 % of control; (dose: 80.0 mg/kg/injection, schedule: Q01DX009 (ip), vehicle: saline) 131 % of control. The survivor count is, setting by setting: (dose: 120.0 mg/kg/injection, schedule: Q01DX009 (ip), vehicle: saline) 6 of 6; (dose: 240.0 mg/kg/injection, schedule: Q01DX009 (ip), vehicle: saline) 3 of 6 and 5 of 6.
With `CCCCCCCCCCCCCCCCCCNC(=S)N/N=C/c1ccc(Cl)cc1Cl`, the survivor count (dose: 50.0 mg/kg/injection, schedule: Q01DX001 (ip), vehicle: Klucel (hydroxypropylcellulose) (HPC)) is 6 of 6; the survivor count under setting [1] is on record as 6 of 6; the survivor count under setting [2] is on record as 6 of 6; the survivor count under setting [3] was 6 of 6.
`CCCCCCCCC(O)CCC` (configuration not stated): for the setting “dose: 400.0 mg/kg/injection, schedule: Q01DX009 (ip), vehicle: saline”, the survivor count is listed as 6 of 6.
For `CCCCC(C)(O)CC` (configuration not stated), the survivor count under setting [4] is 1 of 6.
As for `C=C(C)C(=O)/C(=C/C(=O)O)OC`, the survivor count (dose: 100.0 mg/kg/injection, schedule: Q01DX010 (ip), vehicle: saline) is given as 0 of 6.
On to `CCCCCCOC(CN(C)C)C(Cl)(Cl)Cl` (configuration not stated), for which the survivor count (dose: 400.0 mg/kg/injection, schedule: Q01DX009 (ip), vehicle: saline with Tween-80) is listed as 6 of 6.
On to `CC(C)C(C(=O)c1ccccc1)c1ccccc1` (configuration not stated), for which, under setting [5], the survivor count is 6 of 6.
For the molecule `CCCCCCCCCCOP(=S)(N1CC1)N1CC1`, the T/C was 126 % of control (dose: 9.0 mg/kg/injection, schedule: Q04DX003 (ip), vehicle: saline with Tween-80); 138 % of control (dose: 20.0 mg/kg/injection, schedule: Q04DX003 (ip), vehicle: saline with Tween-80); 142 % of control (dose: 30.0 mg/kg/injection, schedule: Q04DX003 (ip), vehicle: saline with Tween-80).
For the molecule `[Cu+2].[NH-]C1C(Cl)CCC2C(Cl)CC[N-]C12` (configuration not stated), the survivor count by setting is: under setting [1], 0 of 6; under setting [2], 0 of 6; (dose: 400.0 mg/kg/injection, schedule: Q01DX001 (ip), vehicle: Klucel (hydroxypropylcellulose) (HPC)) 0 of 6.
As for `COc1ccc(-c2cc(=O)c3cc(OC)c(OC)cc3o2)cc1OC`, the survivor count (dose: 7.5 mg/kg/injection, schedule: Q01DX009 (ip), vehicle: saline) was 6 of 6.
`OC1CCCC2CCC[N-]C12.OC1CCCC2CCC[N-]C12.[Mn+2]` (configuration not stated): the T/C (dose: 200.0 mg/kg/injection, schedule: Q01DX009 (ip), vehicle: DMSO) is 130 % of control.
With `OCCC1CCN(CC/C=C2/c3ccc(F)cc3Sc3ccc(C(F)(F)F)cc32)CC1`, the survivor count is listed as 6 of 6 (dose: 6.25 mg/kg/injection, schedule: Q01DX001 (ip), vehicle: saline); 6 of 6 (dose: 12.5 mg/kg/injection, schedule: Q01DX001 (ip), vehicle: saline); 2 of 6 (dose: 25.0 mg/kg/injection, schedule: Q01DX001 (ip), vehicle: saline).
Consider `Nc1nc(SCc2ccccn2)c2[nH]cnc2n1`, for which the T/C is 128 % of control (dose: 67.0 mg/kg/injection, schedule: Q04DX003 (ip), vehicle: Klucel (hydroxypropylcellulose) (HPC)); 128 % of control (dose: 150.0 mg/kg/injection, schedule: Q04DX003 (ip), vehicle: Klucel (hydroxypropylcellulose) (HPC)); 145 % of control under setting [3]; 133 % of control (dose: 400.0 mg/kg/injection, schedule: Q04DX003 (ip), vehicle: Klucel (hydroxypropylcellulose) (HPC)). Further, the survivor count (dose: 400.0 mg/kg/injection, schedule: Q01DX009 (ip), vehicle: Klucel (hydroxypropylcellulose) (HPC)) is recorded as 6 of 6.
In the case of `O=S1(=O)CCCO1`, the survivor count under setting [6] is 4 of 6.
In the case of `CCCCc1ccc(C(=O)O)nc1`, the survivor count (dose: 100.0 mg/kg/injection, schedule: Q01DX009 (ip), vehicle: saline) is recorded as 3 of 6.
Consider `CCC[P+](c1ccccc1)(c1ccccc1)c1ccccc1`, for which the T/C is, setting by setting: (dose: 16.0 mg/kg/injection, schedule: Q01DX009 (ip), vehicle: saline) 145 % of control; under setting [7], 141 % of control. In addition, the survivor count (dose: 37.5 mg/kg/injection, schedule: Q01DX009 (ip), vehicle: saline) is 6 of 6.
Regarding `CCCOc1ccc(-c2nc(-c3ccc(N=Cc4ccc(N(CCOS(C)(=O)=O)CCOS(C)(=O)=O)cc4C)cc3)cs2)cc1`, the T/C under setting [8] is 134 % of control.
Consider `Clc1ccc2c(Cl)ncnc2c1`, for which the survivor count under setting [4] is 0 of 6.
In the case of `O=C1c2cc(O)c(O)cc2O[C@H](c2ccc(O)c(O)c2)[C@H]1O`, the T/C (dose: 30.0 mg/kg/injection, schedule: Q01DX009 (ip), vehicle: saline) was 127 % of control; the T/C (dose: 125.0 mg/kg/injection, schedule: Q01DX009 (ip), vehicle: saline) was 127 % of control; the T/C (dose: 250.0 mg/kg/injection, schedule: Q01DX009 (ip), vehicle: saline) was 142 % of control.
As for `O=C(/C=N\O)c1ccncc1`, under setting [3], the survivor count was 3 of 6.
Regarding `O=C1NN(c2ccccc2)C(=O)/C1=C\c1ccccc1`, the T/C was 129 % of control (dose: 87.5 mg/kg/injection, schedule: Q01DX009 (ip), vehicle: saline with Tween-80); 133 % of control (dose: 175.0 mg/kg/injection, schedule: Q01DX009 (ip), vehicle: saline with Tween-80); 133 % of control (dose: 350.0 mg/kg/injection, schedule: Q01DX009 (ip), vehicle: saline with Tween-80).
For the molecule `COCCCNC1=C(C#N)C(=O)NC(c2cccc([N+](=O)[O-])c2)S1` (configuration not stated), the T/C by setting is: under setting [9], 131 % of control; under setting [5], 131 % of control; under setting [6], 147 % of control.
For `O=C(Nc1ccccc1)c1ccc(C(F)(F)F)cc1O`, the T/C runs as follows: under setting [7], 137 % of control; (dose: 50.0 mg/kg/injection, schedule: Q01DX009 (ip), vehicle: saline) 130 % of control.
Regarding `[Cl][Co]([Cl])[Cl].[NH-]CC[N-]CC[NH-]`, the survivor count under setting [6] is listed as 4 of 6.
Turning to `CCOC(=O)/C=C(\C)SC1=CC(=O)C=CC1=O`, under “dose: 400.0 mg/kg/injection, schedule: Q01DX001 (ip), vehicle: saline with Tween-80”, the survivor count is reported as 3 of 6.
For `Oc1c(-c2ccccc2)cc(-[n+]2c(-c3ccccc3)cc(-c3ccccc3)cc2-c2ccccc2)cc1-c1ccccc1`, the T/C (dose: 3.0 mg/kg/injection, schedule: Q01DX009 (ip), vehicle: saline with Tween-80) is 130 % of control.
With `C=C(CNC(C)(C)C)C(=O)c1ccccc1`, the survivor count (dose: 12.5 mg/kg/injection, schedule: Q01DX009 (ip), vehicle: saline) is reported as 2 of 6.
With `CCCCOC1OC[N+](C)(C)CC1(C)C` (configuration not stated), the survivor count reads like this: under setting [8], 6 of 6; under setting [4], 0 of 6.
Regarding `COC(=O)NC1C(C)C=CC(C)C1I` (configuration not stated), the survivor count (dose: 100.0 mg/kg/injection, schedule: Q04DX003 (ip), vehicle: saline with Tween-80) is 6 of 6.
As to `O=P(N1CCCCC1)(N1CC1)N1CC1`, the T/C reads like this: (dose: 5.0 mg/kg/injection, schedule: Q01DX009 (ip), vehicle: saline) 134 % of control; (dose: 12.5 mg/kg/injection, schedule: Q04DX003 (ip), vehicle: saline) 129 % of control. Moreover, the survivor count (dose: 50.0 mg/kg/injection, schedule: Q04DX003 (ip), vehicle: saline) is recorded as 3 of 6.
Consider `N=C(N)c1ccc(C#Cc2ccc(C(=N)N)cc2)cc1`, for which the survivor count is recorded as 0 of 6 under setting [9], 0 of 6 under setting [5] and 0 of 6 under setting [6].
